Measurements reported in PubChem BioAssay AID743448 (Peter MacCallum Cancer Centre, 2014)
The whole screen tested 106 reagents; below is an unselected part. 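Calls are per line and drug panel including etoposide, not vorinostat-specific; gene picks needed hits in two or more extra lines with vorinostat versus etoposide.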

Assay: 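Test whether knock-downs sensitising to vorinostat hold across several colon lines but not etoposide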 (follow-up of hits)
Cell system: four human colon cancer cell lines: HCT116-VR (vorinostat-resistant HCT116 derivative), SW480, SW620 and LIM1215
Knock-down reagent: siRNA pool against human genes, 40 nM siRNA pool
Duration: drug added two days after transfection, read one day later
Treatment: vorinostat 2.5 µM on one half of each plate, etoposide 5 µM on the other half
Read-out: 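Caspase luminescence and viability fluorescence, each expressed relative to mock transfection and also as robust z-scores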
Reading the numbers: caspase ratio to mock: higher = more caspase activity than mock; viability ratio to mock: higher = more live cells than mock; caspase robust z-score: higher = more caspase activity, more apoptosis; viability robust z-score: higher = more live cells
Hit rule: 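a row is a hit if caspase relative to mock is 1.6 or above or viability relative to mock is 0.75 or below; wells dying heavily without drug are not called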
Calls: active = caspase or viability hit in this panel; inactive = no change, or unhealthy well

gene symbol | cell line and drug panel | caspase ratio to mock | viability ratio to mock | caspase robust z-score | viability robust z-score | activity call
MAGOH | LIM1215 cells with etoposide | 3.36 | 0.82 | 1.23 | -0.68 | active
MAGOH | LIM1215 cells with vorinostat | 2.37 | 0.84 | 0.36 | -0.55 | active
MAGOH | SW480 cells with etoposide | 1.12 | 0.86 | -0.74 | -0.03 | inactive
MAGOH | SW480 cells with vorinostat | 1.04 | 1.12 | -1.43 | 1.58 | inactive
MAGOH | SW620 cells with etoposide | 1.27 | 0.99 | 0.25 | 0.98 | inactive
MAGOH | SW620 cells with vorinostat | 1.19 | 1.04 | -0.47 | 0.87 | inactive
MAGOH | vorinostat-resistant HCT116 cells with etoposide | 2.48 | 0.63 | 1.02 | -1.83 | active
MAGOH | vorinostat-resistant HCT116 cells with vorinostat | 2.77 | 0.66 | 0.78 | -1.62 | active
CBX7 | LIM1215 cells with etoposide | 2.62 | 0.78 | 0.43 | -1.03 | active
CBX7 | LIM1215 cells with vorinostat | 3.07 | 0.95 | 1.27 | 0.25 | active
CBX7 | SW480 cells with etoposide | 3.78 | 0.82 | 1.35 | -0.28 | active
CBX7 | SW480 cells with vorinostat | 2.11 | 0.88 | 0.86 | -0.02 | active
CBX7 | SW620 cells with etoposide | 2.09 | 0.96 | 2.11 | 0.68 | active
CBX7 | SW620 cells with vorinostat | 1.82 | 0.95 | 1.31 | 0.29 | active
CBX7 | vorinostat-resistant HCT116 cells with etoposide | 1.94 | 0.89 | 0.28 | -0.22 | active
CBX7 | vorinostat-resistant HCT116 cells with vorinostat | 2.15 | 1 | 0.06 | 0.52 | active
EIF3L | LIM1215 cells with etoposide | 1.48 | 0.76 | -0.68 | -1.12 | inactive
EIF3L | LIM1215 cells with vorinostat | 1.7 | 1.02 | -0.48 | 0.84 | active
EIF3L | SW480 cells with etoposide | 1.29 | 1 | -0.59 | 0.9 | inactive
EIF3L | SW480 cells with vorinostat | 1.55 | 1 | -0.33 | 0.81 | inactive
EIF3L | SW620 cells with etoposide | 1.13 | 0.94 | -0.04 | 0.48 | inactive
EIF3L | SW620 cells with vorinostat | 1.46 | 1.06 | 0.28 | 1.09 | inactive
EIF3L | vorinostat-resistant HCT116 cells with etoposide | 1.5 | 0.96 | -0.29 | 0.12 | inactive
EIF3L | vorinostat-resistant HCT116 cells with vorinostat | 1.85 | 1.16 | -0.38 | 1.54 | active
GATA1 | LIM1215 cells with etoposide | 2.4 | 0.97 | 0.36 | 0.28 | active
GATA1 | LIM1215 cells with vorinostat | 2.19 | 1.08 | 0.07 | 1.23 | active
GATA1 | SW480 cells with etoposide | 3.65 | 0.93 | 1.23 | 0.44 | active
GATA1 | SW480 cells with vorinostat | 2.66 | 0.96 | 2.04 | 0.5 | active
GATA1 | SW620 cells with etoposide | 1.69 | 0.73 | 1.19 | -1.6 | active
GATA1 | SW620 cells with vorinostat | 1.52 | 0.8 | 0.5 | -0.84 | inactive
GATA1 | vorinostat-resistant HCT116 cells with etoposide | 1.47 | 1.06 | -0.33 | 0.84 | inactive
GATA1 | vorinostat-resistant HCT116 cells with vorinostat | 2.37 | 1.17 | 0.3 | 1.64 | active
LCE2A | LIM1215 cells with etoposide | 3 | 1 | 0.83 | 0.5 | inactive
LCE2A | LIM1215 cells with vorinostat | 3.5 | 1 | 1.85 | 0.58 | active
LCE2A | SW480 cells with etoposide | 5.91 | 0.77 | 2.9 | -0.57 | inactive
LCE2A | SW480 cells with vorinostat | 2.06 | 0.79 | 0.77 | -0.58 | active
LCE2A | SW620 cells with etoposide | 2.58 | 0.96 | 3.24 | 0.69 | active
LCE2A | SW620 cells with vorinostat | 2.5 | 1.08 | 3.2 | 1.25 | active
LCE2A | vorinostat-resistant HCT116 cells with etoposide | 1.81 | 1.08 | 0.1 | 0.94 | active
LCE2A | vorinostat-resistant HCT116 cells with vorinostat | 2.77 | 1.12 | 0.7 | 1.25 | active

Just “caspase ratio to mock” (5 entries from above):
GATA1, cell line and drug panel SW480 cells with vorinostat	2.66
GATA1, cell line and drug panel SW620 cells with etoposide	1.69
GATA1, cell line and drug panel SW620 cells with vorinostat	1.52
GATA1, cell line and drug panel vorinostat-resistant HCT116 cells with etoposide	1.47
GATA1, cell line and drug panel vorinostat-resistant HCT116 cells with vorinostat	2.37
